Data from the supplement of paper PMC6411743.
± gives the standard deviation of the averaged measurements. Only a part is listed here, and it is no random draw.

Protein sequences, listed by entry. Tags and fused reporters are not part of them. Lines headed by an entry give the natural chain unless they say otherwise; changes in a name come on top.
UniProt Q16630, whole entry: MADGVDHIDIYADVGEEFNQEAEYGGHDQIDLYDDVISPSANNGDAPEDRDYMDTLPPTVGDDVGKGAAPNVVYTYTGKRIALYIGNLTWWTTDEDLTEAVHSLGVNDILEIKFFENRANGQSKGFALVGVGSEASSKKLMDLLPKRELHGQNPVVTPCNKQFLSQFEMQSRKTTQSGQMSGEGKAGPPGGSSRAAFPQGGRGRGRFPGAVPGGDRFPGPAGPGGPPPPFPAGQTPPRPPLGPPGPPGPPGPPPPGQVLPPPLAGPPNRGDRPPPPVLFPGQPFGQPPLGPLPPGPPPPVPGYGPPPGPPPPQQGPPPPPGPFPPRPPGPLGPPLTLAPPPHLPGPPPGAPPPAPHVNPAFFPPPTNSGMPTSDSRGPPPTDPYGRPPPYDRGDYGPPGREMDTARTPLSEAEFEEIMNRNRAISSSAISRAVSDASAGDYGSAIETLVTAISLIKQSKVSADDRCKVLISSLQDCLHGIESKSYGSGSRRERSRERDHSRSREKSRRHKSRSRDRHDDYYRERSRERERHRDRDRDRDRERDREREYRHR
UniProt Q53S33: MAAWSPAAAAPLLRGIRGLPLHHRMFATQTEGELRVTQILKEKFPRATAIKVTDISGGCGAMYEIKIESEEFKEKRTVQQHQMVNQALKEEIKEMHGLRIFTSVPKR
UniProt Q3ZAQ7: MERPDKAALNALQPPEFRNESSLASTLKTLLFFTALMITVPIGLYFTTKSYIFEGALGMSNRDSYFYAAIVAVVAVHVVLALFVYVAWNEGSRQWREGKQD
UniProt Q15669: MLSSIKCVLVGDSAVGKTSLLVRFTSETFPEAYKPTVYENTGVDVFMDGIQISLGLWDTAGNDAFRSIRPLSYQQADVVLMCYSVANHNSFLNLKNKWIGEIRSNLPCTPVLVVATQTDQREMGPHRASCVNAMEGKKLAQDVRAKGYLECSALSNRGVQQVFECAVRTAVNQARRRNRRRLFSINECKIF
UniProt Q15653: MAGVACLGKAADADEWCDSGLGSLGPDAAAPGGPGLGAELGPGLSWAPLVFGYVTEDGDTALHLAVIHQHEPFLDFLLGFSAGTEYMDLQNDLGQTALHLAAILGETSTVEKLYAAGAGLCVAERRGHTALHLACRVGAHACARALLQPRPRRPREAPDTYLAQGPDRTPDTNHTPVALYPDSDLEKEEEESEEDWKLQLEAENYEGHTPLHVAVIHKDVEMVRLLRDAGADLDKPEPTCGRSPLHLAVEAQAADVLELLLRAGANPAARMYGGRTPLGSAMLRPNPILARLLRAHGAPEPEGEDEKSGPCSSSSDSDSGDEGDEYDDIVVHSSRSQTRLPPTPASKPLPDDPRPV
UniProt Q15777: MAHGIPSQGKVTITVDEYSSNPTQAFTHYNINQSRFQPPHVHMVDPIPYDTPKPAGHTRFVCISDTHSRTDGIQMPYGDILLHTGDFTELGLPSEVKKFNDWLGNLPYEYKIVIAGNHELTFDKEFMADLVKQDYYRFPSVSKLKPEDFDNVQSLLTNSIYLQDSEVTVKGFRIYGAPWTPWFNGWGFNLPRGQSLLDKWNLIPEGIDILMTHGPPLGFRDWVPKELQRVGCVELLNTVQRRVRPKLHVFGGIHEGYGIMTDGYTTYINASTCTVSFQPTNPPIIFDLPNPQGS
UniProt Q15773: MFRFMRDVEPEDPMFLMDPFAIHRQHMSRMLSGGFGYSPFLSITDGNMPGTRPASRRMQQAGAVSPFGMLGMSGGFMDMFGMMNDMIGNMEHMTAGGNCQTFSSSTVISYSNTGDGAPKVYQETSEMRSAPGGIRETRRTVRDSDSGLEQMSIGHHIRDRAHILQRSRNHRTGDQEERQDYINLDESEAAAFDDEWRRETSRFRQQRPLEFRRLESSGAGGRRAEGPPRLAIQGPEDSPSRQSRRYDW
UniProt Q53FA7: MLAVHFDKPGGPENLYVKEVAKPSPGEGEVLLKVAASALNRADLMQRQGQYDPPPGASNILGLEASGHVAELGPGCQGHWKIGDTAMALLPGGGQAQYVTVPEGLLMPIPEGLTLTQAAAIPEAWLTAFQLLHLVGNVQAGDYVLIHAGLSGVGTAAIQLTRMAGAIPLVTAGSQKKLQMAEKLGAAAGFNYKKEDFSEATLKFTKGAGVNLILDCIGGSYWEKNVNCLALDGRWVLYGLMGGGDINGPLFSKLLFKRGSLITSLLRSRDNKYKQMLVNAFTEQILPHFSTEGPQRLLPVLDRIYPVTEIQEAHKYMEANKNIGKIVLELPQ
UniProt Q16204: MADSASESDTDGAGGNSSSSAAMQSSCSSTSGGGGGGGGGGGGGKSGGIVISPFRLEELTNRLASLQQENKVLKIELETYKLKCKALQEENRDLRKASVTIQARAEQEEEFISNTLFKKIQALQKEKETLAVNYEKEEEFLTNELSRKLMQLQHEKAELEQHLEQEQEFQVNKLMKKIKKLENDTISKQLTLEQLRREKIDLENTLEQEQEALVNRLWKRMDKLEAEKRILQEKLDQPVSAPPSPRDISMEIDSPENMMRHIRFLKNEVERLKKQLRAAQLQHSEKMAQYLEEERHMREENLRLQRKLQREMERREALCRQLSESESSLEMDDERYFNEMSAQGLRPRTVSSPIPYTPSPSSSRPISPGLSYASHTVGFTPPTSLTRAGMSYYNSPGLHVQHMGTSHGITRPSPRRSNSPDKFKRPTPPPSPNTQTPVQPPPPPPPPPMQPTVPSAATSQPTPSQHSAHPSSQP
UniProt Q53GT1: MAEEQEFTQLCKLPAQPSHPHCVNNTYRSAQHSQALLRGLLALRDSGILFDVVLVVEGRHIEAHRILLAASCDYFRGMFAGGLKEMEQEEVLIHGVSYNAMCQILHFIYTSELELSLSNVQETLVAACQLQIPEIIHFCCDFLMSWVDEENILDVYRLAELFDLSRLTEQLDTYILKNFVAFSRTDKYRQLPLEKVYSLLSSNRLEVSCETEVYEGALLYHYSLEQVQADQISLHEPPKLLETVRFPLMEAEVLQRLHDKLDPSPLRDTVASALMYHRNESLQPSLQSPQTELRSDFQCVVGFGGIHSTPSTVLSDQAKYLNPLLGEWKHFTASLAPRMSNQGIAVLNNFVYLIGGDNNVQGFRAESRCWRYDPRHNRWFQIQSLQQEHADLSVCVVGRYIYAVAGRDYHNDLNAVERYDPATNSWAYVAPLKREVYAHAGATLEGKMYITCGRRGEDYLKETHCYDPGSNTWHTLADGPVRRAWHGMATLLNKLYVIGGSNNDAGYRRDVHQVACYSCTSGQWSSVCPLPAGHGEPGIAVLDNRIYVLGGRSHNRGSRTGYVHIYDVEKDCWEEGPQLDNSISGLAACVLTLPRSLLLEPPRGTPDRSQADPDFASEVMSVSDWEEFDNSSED
UniProt Q58FF6, whole entry: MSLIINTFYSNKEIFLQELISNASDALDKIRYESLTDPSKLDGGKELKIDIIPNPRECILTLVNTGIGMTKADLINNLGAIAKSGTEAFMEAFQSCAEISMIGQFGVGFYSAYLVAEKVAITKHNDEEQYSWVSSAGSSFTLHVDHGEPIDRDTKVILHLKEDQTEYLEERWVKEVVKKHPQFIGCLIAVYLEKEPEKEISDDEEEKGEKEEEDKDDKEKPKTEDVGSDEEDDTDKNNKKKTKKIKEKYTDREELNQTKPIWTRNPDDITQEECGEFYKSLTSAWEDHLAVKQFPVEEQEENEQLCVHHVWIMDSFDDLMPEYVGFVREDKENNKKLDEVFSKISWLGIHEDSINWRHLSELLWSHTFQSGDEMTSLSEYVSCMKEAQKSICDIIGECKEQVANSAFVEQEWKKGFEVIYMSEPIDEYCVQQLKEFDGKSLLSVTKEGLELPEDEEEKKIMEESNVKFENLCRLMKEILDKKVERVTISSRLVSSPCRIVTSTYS
UniProt Q15121, whole entry: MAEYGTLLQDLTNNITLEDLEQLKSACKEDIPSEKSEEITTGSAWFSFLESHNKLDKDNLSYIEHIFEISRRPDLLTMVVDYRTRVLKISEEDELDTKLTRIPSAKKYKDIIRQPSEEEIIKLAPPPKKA
UniProt Q2TB10: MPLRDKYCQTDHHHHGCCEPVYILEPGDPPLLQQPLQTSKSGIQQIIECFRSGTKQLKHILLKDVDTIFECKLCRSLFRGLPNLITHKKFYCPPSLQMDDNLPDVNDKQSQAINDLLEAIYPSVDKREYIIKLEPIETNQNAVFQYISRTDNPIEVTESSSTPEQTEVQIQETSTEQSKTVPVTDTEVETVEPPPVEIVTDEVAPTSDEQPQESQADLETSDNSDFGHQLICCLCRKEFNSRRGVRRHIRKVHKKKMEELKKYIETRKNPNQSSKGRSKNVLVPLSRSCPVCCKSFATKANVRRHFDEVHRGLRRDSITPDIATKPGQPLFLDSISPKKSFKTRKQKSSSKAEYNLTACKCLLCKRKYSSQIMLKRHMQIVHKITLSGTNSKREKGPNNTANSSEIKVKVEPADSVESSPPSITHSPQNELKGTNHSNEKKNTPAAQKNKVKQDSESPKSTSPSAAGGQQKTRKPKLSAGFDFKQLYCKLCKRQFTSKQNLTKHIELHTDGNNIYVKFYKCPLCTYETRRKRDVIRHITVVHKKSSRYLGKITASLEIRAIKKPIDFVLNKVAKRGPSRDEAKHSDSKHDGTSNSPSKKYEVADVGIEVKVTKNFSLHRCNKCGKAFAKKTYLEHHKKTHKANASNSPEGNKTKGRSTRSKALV
UniProt Q5C9Z4: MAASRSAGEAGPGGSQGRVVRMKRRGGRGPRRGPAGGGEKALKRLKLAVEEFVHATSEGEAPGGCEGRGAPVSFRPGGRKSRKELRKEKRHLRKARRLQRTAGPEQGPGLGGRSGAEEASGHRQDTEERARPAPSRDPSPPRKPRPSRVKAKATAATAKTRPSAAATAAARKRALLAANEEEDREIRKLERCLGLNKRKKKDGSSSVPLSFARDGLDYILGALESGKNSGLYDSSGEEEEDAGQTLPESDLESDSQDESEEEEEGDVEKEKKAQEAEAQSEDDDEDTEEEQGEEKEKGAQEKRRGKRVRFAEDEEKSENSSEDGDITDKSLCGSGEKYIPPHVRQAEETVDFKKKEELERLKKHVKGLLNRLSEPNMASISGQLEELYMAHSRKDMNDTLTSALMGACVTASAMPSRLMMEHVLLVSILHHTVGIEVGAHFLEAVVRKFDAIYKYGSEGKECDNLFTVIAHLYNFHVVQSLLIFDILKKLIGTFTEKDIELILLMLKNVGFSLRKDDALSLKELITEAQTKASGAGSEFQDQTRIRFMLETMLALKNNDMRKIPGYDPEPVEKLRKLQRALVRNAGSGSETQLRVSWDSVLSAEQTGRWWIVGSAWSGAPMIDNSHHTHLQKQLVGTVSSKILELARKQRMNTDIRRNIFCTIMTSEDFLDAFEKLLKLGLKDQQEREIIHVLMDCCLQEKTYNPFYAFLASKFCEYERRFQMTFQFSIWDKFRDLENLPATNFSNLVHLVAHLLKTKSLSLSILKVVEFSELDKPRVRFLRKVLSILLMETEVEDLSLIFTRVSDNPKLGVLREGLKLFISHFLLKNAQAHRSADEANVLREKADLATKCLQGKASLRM
UniProt Q15649: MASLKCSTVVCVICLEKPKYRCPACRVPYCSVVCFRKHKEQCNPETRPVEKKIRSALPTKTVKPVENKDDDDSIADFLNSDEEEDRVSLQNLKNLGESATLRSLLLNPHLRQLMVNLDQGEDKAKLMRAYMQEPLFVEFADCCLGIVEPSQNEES

Compound: Nc1ncnc2c1ncn2[C@@H]1O[C@H](COP(=O)(O)OP(=O)(O)NP(=O)(O)O)[C@@H](O)[C@H]1O [adenylyl imidodiphosphate]
Experiment: NP40-soluble protein abundance relative to vehicle (solubility fold change) (ratio); higher = more soluble protein in presence of AMP-PNP
Method in brief: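 Jurkat crude lysate prepared with a Dounce homogeniser was treated at eight concentrations spanning 0.1 to 10 mM, 10 min at room temperature then 3 min at 37 °C. Solubilisation with 0.8% NP40 and benzonase and ultracentrifugation preceded TMT labelling of the supernatant for LC-MS/MS. Fold change against the detergent-processed vehicle was determined per replicate from vsn-normalised intensities, across three independent experiments.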

Target	NP40-soluble protein abundance (concentration: 1mM)	NP40-soluble protein abundance (concentration: 2mM)	NP40-soluble protein abundance (concentration: 4mM)	NP40-soluble protein abundance (concentration: 6mM)	NP40-soluble protein abundance (concentration: 8mM)	NP40-soluble protein abundance (concentration: 10mM)
UniProt Q15438 and related entries	1 ± 0.027	0.977 ± 0.038	1.01 ± 0.03	0.957 ± 0.02	0.9798 ± 0.0091	0.964 ± 0.037
UniProt Q53H47 and related entries	1.017 ± 0.0058	1.03 ± 0.015	1.02 ± 0.02	1.02 ± 0.015	1.007 ± 0.0082	1.01 ± 0.045
UniProt Q16630-2|Q16630	1.067 ± 0.004	1.12 ± 0.043	1.149 ± 0.0081	1.22 ± 0.025	1.3 ± 0.017	1.51 ± 0.045
BOLA3 (UniProt Q53S33)	0.948 ± 0.016	0.967 ± 0.021	0.935 ± 0.026	0.9272 ± 0.0036	0.894 ± 0.056	0.88 ± 0.046
Q5JQQ4 and related entries (UniProt Q9BVM2)	1.03 ± 0.021	0.995 ± 0.068	1.04 ± 0.035	1.006 ± 0.0038	1.06 ± 0.099	1.02 ± 0.032
VMA21 (UniProt Q3ZAQ7)	0.9605 ± 0.0027	0.98211 ± 0.0008	0.9534 ± 0.0027	0.947 ± 0.078	0.938 ± 0.028	0.9298 ± 0.008
UniProt Q16875 and related entries	0.962 ± 0.026	0.973 ± 0.048	1.01 ± 0.03	1.01 ± 0.038	1.04 ± 0.07	0.983 ± 0.038
UniProt Q53EL6 and related entries	1.1 ± 0.054	1.14 ± 0.085	1.17 ± 0.1	1.18 ± 0.12	1.21 ± 0.12	1.29 ± 0.11
UBAP2 (UniProt Q5T6F2)	1.06 ± 0.022	1.1 ± 0.096	1.07 ± 0.038	1.04 ± 0.033	1.01 ± 0.021	1.05 ± 0.045
UniProt Q5R372 and related entries	0.97 ± 0.054	0.944 ± 0.041	0.969 ± 0.029	0.917 ± 0.0092	0.905 ± 0.014	0.905 ± 0.046
UniProt Q15669	1.02 ± 0.0095	0.976 ± 0.068	0.983 ± 0.01	0.962 ± 0.02	0.959 ± 0.018	0.951 ± 0.014
MEX3C (UniProt Q5U5Q3)	0.979 ± 0.035	0.982 ± 0.032	0.976 ± 0.021	0.9737 ± 0.0065	0.9791 ± 0.0055	0.98706 ± 0.00045
UniProt Q15653 and related entries	1.001 ± 0.0073	1.03 ± 0.025	1.03 ± 0.015	0.982 ± 0.023	0.957 ± 0.028	0.982 ± 0.024
TSR1 (UniProt Q2NL82)	0.845 ± 0.036	0.855 ± 0.055	0.854 ± 0.076	0.885 ± 0.065	0.864 ± 0.059	0.9 ± 0.088
TOR2A (UniProt Q5JU69)	0.994 ± 0.02	0.99 ± 0.011	0.9767 ± 0.0048	0.9982 ± 0.0097	1.04 ± 0.024	1.005 ± 0.0066
TSC22D1 (UniProt Q15714)	0.981 ± 0.017	0.998 ± 0.024	0.986 ± 0.019	0.988 ± 0.041	0.9895 ± 0.0053	0.992 ± 0.025
UniProt Q15777 and related entries	0.975 ± 0.012	0.966 ± 0.042	0.975 ± 0.024	0.974 ± 0.028	0.99 ± 0.012	0.964 ± 0.045
MLF2 (UniProt Q15773)	0.941 ± 0.025	0.931 ± 0.033	0.895 ± 0.018	0.9 ± 0.018	0.882 ± 0.032	0.853 ± 0.038
TP53I3 (UniProt Q53FA7)	1.02 ± 0.036	0.999 ± 0.018	1.04 ± 0.025	1 ± 0.028	1 ± 0.017	1.01 ± 0.023
CCDC6 (UniProt Q16204)	0.993 ± 0.023	1.06 ± 0.037	0.979 ± 0.041	0.957 ± 0.024	0.9475 ± 0.0034	0.916 ± 0.027
UniProt Q3T8J9 and related entries	0.988 ± 0.026	1.01 ± 0.042	0.983 ± 0.032	1.01 ± 0.021	0.9804 ± 0.0084	0.985 ± 0.032
KLHL22 (UniProt Q53GT1)	0.99 ± 0.018	0.988 ± 0.031	1.004 ± 0.01	1.002 ± 0.0011	0.991 ± 0.017	0.985 ± 0.011
HNRNPUL2 (UniProt Q1KMD3)	0.976 ± 0.1	0.971 ± 0.07	0.939 ± 0.13	0.933 ± 0.16	0.914 ± 0.13	0.935 ± 0.18
HSP90AB4P (UniProt Q58FF6)	1.04 ± 0.05	1.04 ± 0.043	1.03 ± 0.03	1.01 ± 0.023	1 ± 0.057	1.03 ± 0.051
UniProt Q15121 and related entries	1.06 ± 0.051	1.1 ± 0.14	1.03 ± 0.042	0.99 ± 0.058	0.941 ± 0.018	0.965 ± 0.021
ZNF800 (UniProt Q2TB10)	1.03 ± 0.017	1.044 ± 0.01	1.03 ± 0.019	1.07 ± 0.032	1.08 ± 0.03	1.1 ± 0.059
NOM1 (UniProt Q5C9Z4)	1.026 ± 0.0033	1.04 ± 0.044	1.06 ± 0.056	1.06 ± 0.046	1.04 ± 0.062	1.04 ± 0.062
FAM98C (UniProt Q17RN3)	0.976 ± 0.023	0.962 ± 0.024	0.988 ± 0.015	1.01 ± 0.029	1.02 ± 0.05	1.01 ± 0.036
ZNHIT3 (UniProt Q15649)	1 ± 0.037	1.027 ± 0.0095	0.9981 ± 0.0094	1.02 ± 0.018	1.03 ± 0.011	1.07 ± 0.011
UniProt Q15390 and related entries	1.008 ± 0.0075	1.05 ± 0.071	1.01 ± 0.02	1 ± 0.011	0.9719 ± 0.0073	0.989 ± 0.021

Record cards, from the list above. Values in the order: NP40-soluble protein abundance (concentration: 1mM)	NP40-soluble protein abundance (concentration: 2mM)	NP40-soluble protein abundance (concentration: 4mM)	NP40-soluble protein abundance (concentration: 6mM)	NP40-soluble protein abundance (concentration: 8mM)	NP40-soluble protein abundance (concentration: 10mM)
UBAP2 (UniProt Q5T6F2) in the list: 1.06 ± 0.022	1.1 ± 0.096	1.07 ± 0.038	1.04 ± 0.033	1.01 ± 0.021	1.05 ± 0.045
TOR2A (UniProt Q5JU69) in the list: 0.994 ± 0.02	0.99 ± 0.011	0.9767 ± 0.0048	0.9982 ± 0.0097	1.04 ± 0.024	1.005 ± 0.0066
